Assay results published in PMC6494879, “Drug resistance emergence in macaques administered cabotegravir long-acting for pre-exposure prophylaxis during acute SHIV infection” (Nature Communications, 2019).
The source gives many values for each of these; only a part stands here.

Tested on: RT-SHIV
Test: Plasma SHIV RNA (RT-PCR) in RT-SHIV-infected macaques treated with CAB LA

C[C@H]1CO[C@@H]2Cn3cc(C(=O)NCc4ccc(F)cc4F)c(=O)c(O)c3C(=O)N12 [CAB, cabotegravir]
SHIV RNA copies/ml (macaque 01D520, day 0): 49 copies/ml
SHIV RNA copies/ml (macaque 01D520, day 2): 24054 copies/ml
SHIV RNA copies/ml (macaque 01D520, day 4): 234571 copies/ml
SHIV RNA copies/ml (macaque 01D520, day 7): 2378294 copies/ml
SHIV RNA copies/ml (macaque 01D520, day 9): 13185480 copies/ml
SHIV RNA copies/ml (macaque 01D520, day 11): 9939004 copies/ml
SHIV RNA copies/ml (macaque 01D520, day 71): 74 copies/ml
SHIV RNA copies/ml (macaque 01D520, day 74): 10 copies/ml
SHIV RNA copies/ml (macaque 01D520, day 78): 49 copies/ml
SHIV RNA copies/ml (macaque 01D520, day 81): 49 copies/ml
SHIV RNA copies/ml (macaque 01D520, day 85): 121 copies/ml
SHIV RNA copies/ml (macaque 01D520, day 88): 115 copies/ml
SHIV RNA copies/ml (macaque 01D520, day 92): 68 copies/ml
SHIV RNA copies/ml (macaque 01D520, day 95): 49 copies/ml
SHIV RNA copies/ml (macaque 01D520, day 102): 49 copies/ml
SHIV RNA copies/ml (macaque 01D520, day 106): 74 copies/ml
SHIV RNA copies/ml (macaque 01D520, day 115): 3507 copies/ml
SHIV RNA copies/ml (macaque 01D520, day 120): 30409 copies/ml
SHIV RNA copies/ml (macaque 01D520, day 134): 3801 copies/ml
SHIV RNA copies/ml (macaque 01D520, day 143): 2184 copies/ml
SHIV RNA copies/ml (macaque 01D520, day 148): 4184 copies/ml
SHIV RNA copies/ml (macaque 01D520, day 155): 3234 copies/ml
SHIV RNA copies/ml (macaque 01D520, day 162): 3039 copies/ml
SHIV RNA copies/ml (macaque 01D520, day 170): 2400 copies/ml
SHIV RNA copies/ml (macaque 01D520, day 176): 908 copies/ml
SHIV RNA copies/ml (macaque 01D520, day 183): 9714 copies/ml
SHIV RNA copies/ml (macaque 01D520, day 190): 12824 copies/ml
SHIV RNA copies/ml (macaque 01D520, day 197): 16826 copies/ml
SHIV RNA copies/ml (macaque 01D520, day 204): 18749 copies/ml
SHIV RNA copies/ml (macaque 10D181, day 0): 49 copies/ml
SHIV RNA copies/ml (macaque 10D181, day 2): 34540 copies/ml
SHIV RNA copies/ml (macaque 10D181, day 4): 590862 copies/ml
SHIV RNA copies/ml (macaque 10D181, day 7): 3088710 copies/ml
SHIV RNA copies/ml (macaque 10D181, day 9): 8751291 copies/ml
SHIV RNA copies/ml (macaque 10D181, day 11): 4010088 copies/ml
SHIV RNA copies/ml (macaque 10D181, day 67): 66 copies/ml
SHIV RNA copies/ml (macaque 10D181, day 71): 336 copies/ml
SHIV RNA copies/ml (macaque 10D181, day 74): 374 copies/ml
SHIV RNA copies/ml (macaque 10D181, day 78): 128 copies/ml
SHIV RNA copies/ml (macaque 10D181, day 81): 966 copies/ml
SHIV RNA copies/ml (macaque 10D181, day 85): 187 copies/ml
SHIV RNA copies/ml (macaque 10D181, day 88): 72 copies/ml
SHIV RNA copies/ml (macaque 10D181, day 92): 188 copies/ml
SHIV RNA copies/ml (macaque 10D181, day 95): 112 copies/ml
SHIV RNA copies/ml (macaque 10D181, day 102): 5488 copies/ml
SHIV RNA copies/ml (macaque 10D181, day 106): 26903 copies/ml
SHIV RNA copies/ml (macaque 10D181, day 115): 50275 copies/ml
SHIV RNA copies/ml (macaque 10D181, day 120): 64049 copies/ml
SHIV RNA copies/ml (macaque 10D181, day 134): 56265 copies/ml
SHIV RNA copies/ml (macaque 10D181, day 143): 62966 copies/ml
SHIV RNA copies/ml (macaque 10D181, day 148): 84964 copies/ml
SHIV RNA copies/ml (macaque 10D181, day 155): 89398 copies/ml
SHIV RNA copies/ml (macaque 10D181, day 162): 97853 copies/ml
SHIV RNA copies/ml (macaque 10D181, day 170): 132357 copies/ml
SHIV RNA copies/ml (macaque 10D181, day 176): 167841 copies/ml
SHIV RNA copies/ml (macaque 10D181, day 183): 261543 copies/ml
SHIV RNA copies/ml (macaque 10D181, day 190): 245129 copies/ml
SHIV RNA copies/ml (macaque 10D181, day 197): 596247 copies/ml
SHIV RNA copies/ml (macaque 10D181, day 204): 1994912 copies/ml
SHIV RNA copies/ml (macaque 33996, day 0): 49 copies/ml
SHIV RNA copies/ml (macaque 33996, day 2): 837 copies/ml
SHIV RNA copies/ml (macaque 33996, day 4): 10458 copies/ml
SHIV RNA copies/ml (macaque 33996, day 7): 158776 copies/ml
SHIV RNA copies/ml (macaque 33996, day 9): 2056891 copies/ml
SHIV RNA copies/ml (macaque 33996, day 11): 1239140 copies/ml
SHIV RNA copies/ml (macaque 33996, day 67): 49 copies/ml
SHIV RNA copies/ml (macaque 33996, day 71): 344 copies/ml
SHIV RNA copies/ml (macaque 33996, day 74): 49 copies/ml
SHIV RNA copies/ml (macaque 33996, day 78): 49 copies/ml
SHIV RNA copies/ml (macaque 33996, day 81): 80 copies/ml
SHIV RNA copies/ml (macaque 33996, day 85): 49 copies/ml
SHIV RNA copies/ml (macaque 33996, day 88): 49 copies/ml
SHIV RNA copies/ml (macaque 33996, day 92): 21 copies/ml
SHIV RNA copies/ml (macaque 33996, day 95): 49 copies/ml
SHIV RNA copies/ml (macaque 33996, day 102): 49 copies/ml
SHIV RNA copies/ml (macaque 33996, day 106): 49 copies/ml
SHIV RNA copies/ml (macaque 33996, day 115): 1807 copies/ml
SHIV RNA copies/ml (macaque 33996, day 120): 669 copies/ml
SHIV RNA copies/ml (macaque 33996, day 134): 1829 copies/ml
SHIV RNA copies/ml (macaque 33996, day 143): 1935 copies/ml
SHIV RNA copies/ml (macaque 33996, day 148): 144 copies/ml
SHIV RNA copies/ml (macaque 33996, day 155): 101 copies/ml
SHIV RNA copies/ml (macaque 33996, day 162): 388 copies/ml
SHIV RNA copies/ml (macaque 33996, day 170): 49 copies/ml
SHIV RNA copies/ml (macaque 33996, day 176): 200 copies/ml
SHIV RNA copies/ml (macaque 33996, day 183): 49 copies/ml
SHIV RNA copies/ml (macaque 33996, day 190): 49 copies/ml
SHIV RNA copies/ml (macaque 33996, day 197): 559 copies/ml
